# From PubChem BioAssay AID2685 (National Center for Advancing Translational Sciences (NCATS), 2010)
# This is one part of the list. These are further read-outs of the screen, such as a control signal, another cell line or another target. No call is given for them. Compounds called inactive in the main read-out are mostly missing here. The note in brackets gives the kind of curve behind each potency; many fits are weak.
# Assay: qHTS Assay for Lipid Storage Modulators in Drosophila S3 Cells;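 on cell number change: cells counted by Cell Tracker Red CMTPX staining in the red channel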
# Settings: BODIPY lipid droplet fluorescence, 18-24 h; for cell number change: measured here: cell count max response, cells fed with added oleic acid
# Outline: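 Laser-scanning cytometry quantifies lipid droplet accumulation (500–530 nm total intensity; droplet/cell object ratio) in oleic acid-fed (400 uM added) Drosophila S3 cells treated with a concentration series. 20 uM Triacsin C defined 100% inhibition.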
# [1] = measured here: cell number channel AC50, cells fed with added oleic acid
# [2] = measured here: lipid fluorescence (Fed channel) AC50, cells fed with added oleic acid
Compound,AC50 [1],AC50 [2],cell number change [%]
COCCNC(=O)c1cc2c(-c3ccc(Cl)cc3)nn(C)c2s1,"2.59 µM [rising, partial curve]","1.64 µM [rising, partial curve]",–
CCN1CCCC1CNC(=O)Cn1cnc2ccc(S(=O)(=O)N3CCC(C)CC3)cc2c1=O (configuration not stated),"23.1 µM [falling, single point]",–,-60.1
COc1ccc(Cl)c(OC)c1C(=O)NC(=O)Nc1c(F)cc(F)cc1F,–,"0.517 µM [falling, single point]",-2.19
Cc1c(NS(=O)(=O)CC23CCC(CC2=O)C3(C)C)c(=O)n(-c2ccccc2)n1C (configuration not stated),"29.1 µM [rising, single point]","2.91 µM [rising, full curve, poor fit]",43.5
CCn1c(SCC(=O)NC2CCCCC2C)nnc1-c1ccc(OC)cc1 (configuration not stated),–,–,-7.99
CCSc1nc2c(c(=O)[nH]1)C(c1ccc(C)cc1)C1=C(CCCC1=O)N2 (configuration not stated),–,"0.517 µM [falling, single point]",-9.25
C=C(C)CNC(=S)NNC(=O)CCn1c2ccccc2c2ccccc21,"0.291 µM [falling, partial curve, poor fit]",–,-4.6
CC(NC(=O)c1ccccc1F)c1nnc(SCC(=O)NC2CCCCC2)n1C (configuration not stated),–,"0.58 µM [falling, single point]",–
Cc1ccc(OCC(=O)c2c(O)c3ccccc3oc2=O)cc1C,–,–,3.57
O=C(O)c1ccc(Sc2nnnn2-c2ccccc2)c([N+](=O)[O-])c1,–,"4.11 µM [falling, single point]",-29.3
COCCN(C(=O)CSc1n[nH]c(-c2ccccc2)n1)c1c(N)n(Cc2ccccc2)c(=O)[nH]c1=O,–,"5.17 µM [rising, single point]",-5.13
CCCCN(C(=O)CSc1nnc(Nc2ccccc2)s1)c1c(N)n(CCC)c(=O)[nH]c1=O,–,"0.92 µM [rising, partial curve, poor fit]",24.1
COCCN(CCOC)S(=O)(=O)c1ccc(C(=O)Nc2nnc(CSC)o2)cc1,"20.6 µM [falling, single point]",–,-70.8
CCCN(CC(=O)Nc1ccccc1OC)C(=O)c1cnc(Cl)c(Cl)c1,–,"29.1 µM [falling, single point]",–
Nc1c(-c2cccc(Cl)c2)cnn1-c1cccc([N+](=O)[O-])c1,"5.8 µM [rising, partial curve, poor fit]",–,19.5
COc1ccc(NC(=O)CCCn2nc(C)c3c(C)n(-c4ccccc4)nc3c2=O)cc1,–,"1.84 µM [rising, partial curve, poor fit]",-23.4
O=C(CN1CC(=O)Oc2ccccc21)OCC(=O)c1ccc(F)cc1,"20.6 µM [falling, single point]",–,-64.6
O=C(NC1CCCC1)C(c1ccco1)N(C(=O)c1ccco1)c1ccccc1 (configuration not stated),–,"29.1 µM [rising, single point]",-8.97
CC(=O)Nc1ccccc1OCC(=O)NC(C)c1ccccc1 (configuration not stated),–,"0.13 µM [falling, full curve, poor fit]",-3.21

Compound,AC50 [1],AC50 [2],cell number change [%]
CC1CC(=O)Nc2ccccc2N1C(=O)Nc1ccc(F)cc1F (configuration not stated),–,"2.59 µM [falling, full curve, poor fit]",-7.79
CN(C)Cc1ccccc1Sc1ccc(Br)cc1,–,"0.013 µM [falling, full curve]",-16.5
C=CCc1ccc(OCC(O)COc2ccc(CC=C)cc2OC)c(OC)c1,"1.46 µM [falling, partial curve, poor fit]","14.6 µM [falling, partial curve]",-36.8
Cc1ccccc1OCC(=O)NC1=NCCS1,"29.1 µM [rising, single point]",–,62.1
COc1cccc(-c2c(C(=O)N/N=C(\C)c3ccco3)nnn2-c2nonc2N)c1,–,–,25.4
COc1ccc(-c2[nH]ncc2CN(C)C(C)c2ccon2)c(OC)c1 (configuration not stated),–,"3.66 µM [rising, partial curve, poor fit]",26.2
Cc1cc(C)cc(-c2nc(-c3ccncc3)no2)c1,"2.59 µM [rising, full curve]","2.91 µM [rising, full curve]",56.5
CCOc1nc(NC(=O)NS(=O)(=O)c2cccc(Cl)c2)nc(-c2ccccc2)n1,–,"1.03 µM [rising, partial curve]",21.9
Cc1cccc(NC2(C(F)(F)F)N=C(c3ccccc3)NC2=O)n1 (configuration not stated),–,"14.6 µM [falling, single point]",-3.19
Cc1ccc(S(=O)(=O)N2CCOCC2)cc1NC(=O)COc1ncnc2ccccc12,"0.517 µM [rising, partial curve, poor fit]","3.66 µM [falling, full curve, poor fit]",–
COc1ccc(-c2nc(CNS(=O)(=O)c3cc(OC)ccc3OC)cs2)cc1,–,"9.2 µM [rising, partial curve]",170
Cc1ccc(S(=O)(=O)N(CC(=O)NCc2ccccc2Cl)C(=O)N2CCN(C)CC2)cc1,"0.082 µM [falling, full curve, poor fit]",–,-50
CCCN1Cc2cccc(C(=O)Nc3ccc(CN4CCCC4)cc3)c2C1=O,–,"2.31 µM [rising, partial curve, poor fit]",17.4
NNc1nc(Nc2ccccc2)nc(N2CCCCC2)n1,–,"18.4 µM [rising, single point]",24.2
CCOC(=O)c1c(O)c2cccc3c2n(c1=O)CC3,"1.16 µM [falling, full curve, poor fit]","6.51 µM [falling, single point]",-2.88
COCc1cc(S(=O)c2ccc(Cl)cc2)nc(C)n1 (configuration not stated),"4.61 µM [falling, single point]",–,2.76
Cc1ccc(N(CC(=O)NCc2ccccc2)C(=O)c2csnn2)c(C)c1,–,"29.1 µM [rising, single point]",1.71
Cc1cc(C(=O)CSc2nnc(N)s2)c(C)n1-c1c(C)n(C)n(-c2ccccc2)c1=O,"32.6 µM [rising, single point]","0.411 µM [falling, full curve]",62.8
CCOc1ccc(N2C(=O)CC(Sc3nnnn3-c3ccccc3)C2=O)cc1 (configuration not stated),"0.231 µM [falling, full curve, poor fit]","0.651 µM [falling, full curve]",-30.1

Compound,AC50 [1],AC50 [2],cell number change [%]
CNc1nc(NC)nc(-n2c(C(F)(F)F)nc3ccccc32)n1,"0.731 µM [rising, full curve, poor fit]","1.16 µM [rising, single point]",22.8
CCN1CCN(c2ccc(S(=O)(=O)N3CCOCC3)cc2NC(=O)c2ccc(C)cc2C)CC1,–,"20.6 µM [rising, partial curve]",1.25
O=C(O)c1ccc(N/N=C/C=C/c2ccccc2[N+](=O)[O-])cc1,–,–,-22.9
CC(NC(=O)c1ccccc1F)c1nnc(SCC(=O)Nc2nnc(C3CC3)s2)n1C (configuration not stated),–,"0.326 µM [falling, full curve, poor fit]",-17.1
COc1ccc(S(=O)(=O)N2CCCCCC2)cc1C(=O)N(CC(C)C)C1CCS(=O)(=O)C1 (configuration not stated),–,"32.6 µM [rising, single point]",-2.33
COc1ccc(C(=O)NC2CCN(CC(=O)Nc3c(C)cccc3C)CC2)cc1OC,–,"29.1 µM [rising, single point]",11.1
Brc1c(CSc2nnc(-c3ccco3)o2)nc2ccccn12,"29.1 µM [rising, single point]","29.1 µM [rising, single point]",49.8
O=C(CC(NS(=O)(=O)c1ccc(Cl)cc1)c1ccco1)NCc1ccco1 (configuration not stated),–,–,0.251
O=C(O)c1ccc(NCc2nc3ccccc3n2Cc2ccccc2)cc1,–,"5.17 µM [rising, full curve, poor fit]",13.2
Cc1ccc(NC2=CC(=O)C(=O)c3ccccc32)c(C)c1,"1.64 µM [falling, partial curve]",–,12.8
COc1cccc(CNC(=O)CCC2CCCN(C(=O)c3ccc(OC)c(F)c3)C2)c1 (configuration not stated),"8.2 µM [falling, partial curve]","6.51 µM [falling, partial curve]",-35.2
Cc1cccc(N(Cc2ccccc2)C(=O)c2cccc(S(=O)(=O)N3CC(C)OC(C)C3)c2)c1 (configuration not stated),–,"23.1 µM [falling, partial curve]",25
c1ccc(Nc2scc(-c3ccccc3)[n+]2Cc2ccco2)cc1,–,–,52
O=C(NCc1ccc2c(c1)OCO2)C1CC(=O)N(c2ccc(Cl)cc2)C1 (configuration not stated),–,"6.51 µM [falling, single point]",8.26
CCCC[n+]1ccn(-c2nc3c([N+](=O)[O-])cccc3n2C)c1,–,–,25.6
CC(NC(=O)c1cc2c(=O)n3ccccc3nc2n(CC2CCCO2)c1=N)c1ccccc1 (configuration not stated),–,"29.1 µM [rising, partial curve]",23.8
Cn1c(SCC(=O)N2CCOCC2)nc(O)cc1=O,"29.1 µM [falling, single point]","29.1 µM [falling, single point]",-57.4
Cc1ccnc(NS(=O)(=O)c2ccc(NS(=O)(=O)Cc3ccccc3)cc2)n1,"29.1 µM [falling, single point]","0.092 µM [falling, full curve, poor fit]",-43
Cc1n[nH]c(C)c1N1C(=O)c2cccc3c(N4CCCCCC4)ccc(c23)C1=O,"2.59 µM [falling, full curve]","6.51 µM [falling, partial curve]",-104

# Part of the list above, with tabs.
Compound	AC50 [1]	AC50 [2]	cell number change [%]
O=C(CN1CC(=O)Oc2ccccc21)OCC(=O)c1ccc(F)cc1	20.6 µM [falling, single point]	–	-64.6
CC1CC(=O)Nc2ccccc2N1C(=O)Nc1ccc(F)cc1F (configuration not stated)	–	2.59 µM [falling, full curve, poor fit]	-7.79
O=C(O)c1ccc(N/N=C/C=C/c2ccccc2[N+](=O)[O-])cc1	–	–	-22.9
